Results are given in words; binding and its absence hold for the method and conditions named. Some binding calls cover weakened binding; strength is not graded here.

Sequences of proteins named here, by UniProt entry; tags and fusion partners are left off. A change or cut given only in a name is not applied to a line headed by its entry. Residues count along the entry.
UniProt Q99MK8: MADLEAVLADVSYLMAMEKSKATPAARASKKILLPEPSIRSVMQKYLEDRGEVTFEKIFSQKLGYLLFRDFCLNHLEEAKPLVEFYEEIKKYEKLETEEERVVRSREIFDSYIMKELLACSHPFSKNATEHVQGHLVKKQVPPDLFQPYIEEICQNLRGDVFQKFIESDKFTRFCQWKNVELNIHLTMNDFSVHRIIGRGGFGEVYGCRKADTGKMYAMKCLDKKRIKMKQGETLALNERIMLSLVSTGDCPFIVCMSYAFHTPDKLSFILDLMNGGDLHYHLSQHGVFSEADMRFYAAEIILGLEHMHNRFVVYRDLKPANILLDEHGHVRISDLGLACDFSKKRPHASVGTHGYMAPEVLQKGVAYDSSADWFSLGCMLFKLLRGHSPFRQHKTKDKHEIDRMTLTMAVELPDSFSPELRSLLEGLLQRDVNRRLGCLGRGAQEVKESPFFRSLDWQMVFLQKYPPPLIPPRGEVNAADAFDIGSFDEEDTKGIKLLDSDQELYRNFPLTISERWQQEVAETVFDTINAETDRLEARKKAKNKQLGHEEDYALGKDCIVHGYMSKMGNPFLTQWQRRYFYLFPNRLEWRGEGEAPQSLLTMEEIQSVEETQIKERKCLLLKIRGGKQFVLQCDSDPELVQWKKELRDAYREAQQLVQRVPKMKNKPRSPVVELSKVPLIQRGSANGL
UniProt P42336: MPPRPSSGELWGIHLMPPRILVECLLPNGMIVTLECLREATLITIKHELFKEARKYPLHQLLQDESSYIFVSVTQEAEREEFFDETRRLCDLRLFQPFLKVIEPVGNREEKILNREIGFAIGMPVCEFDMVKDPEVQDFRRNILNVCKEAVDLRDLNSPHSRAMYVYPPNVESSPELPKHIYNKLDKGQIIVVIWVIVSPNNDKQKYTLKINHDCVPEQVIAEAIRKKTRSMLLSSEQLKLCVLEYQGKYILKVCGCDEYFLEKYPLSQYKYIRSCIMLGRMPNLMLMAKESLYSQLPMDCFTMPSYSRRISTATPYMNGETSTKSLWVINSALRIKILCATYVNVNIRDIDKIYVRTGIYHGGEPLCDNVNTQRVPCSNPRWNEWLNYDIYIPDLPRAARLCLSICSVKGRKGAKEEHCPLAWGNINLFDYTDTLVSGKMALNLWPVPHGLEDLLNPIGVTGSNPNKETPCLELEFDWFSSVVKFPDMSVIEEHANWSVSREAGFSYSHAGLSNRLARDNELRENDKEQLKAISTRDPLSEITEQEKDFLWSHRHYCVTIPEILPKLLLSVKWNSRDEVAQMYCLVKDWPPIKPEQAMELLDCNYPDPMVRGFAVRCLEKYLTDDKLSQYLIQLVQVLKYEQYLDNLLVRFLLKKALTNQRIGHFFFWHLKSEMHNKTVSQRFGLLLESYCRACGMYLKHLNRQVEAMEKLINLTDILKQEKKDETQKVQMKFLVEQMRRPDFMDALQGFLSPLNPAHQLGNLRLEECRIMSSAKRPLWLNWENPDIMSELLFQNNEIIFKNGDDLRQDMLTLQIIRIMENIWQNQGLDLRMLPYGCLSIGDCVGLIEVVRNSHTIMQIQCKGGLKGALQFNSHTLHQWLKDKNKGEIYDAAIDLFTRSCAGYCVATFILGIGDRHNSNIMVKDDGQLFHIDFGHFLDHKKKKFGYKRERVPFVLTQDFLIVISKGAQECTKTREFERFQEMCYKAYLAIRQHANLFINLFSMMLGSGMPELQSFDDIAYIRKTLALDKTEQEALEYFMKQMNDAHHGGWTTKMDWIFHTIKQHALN
UniProt Q9JHG7: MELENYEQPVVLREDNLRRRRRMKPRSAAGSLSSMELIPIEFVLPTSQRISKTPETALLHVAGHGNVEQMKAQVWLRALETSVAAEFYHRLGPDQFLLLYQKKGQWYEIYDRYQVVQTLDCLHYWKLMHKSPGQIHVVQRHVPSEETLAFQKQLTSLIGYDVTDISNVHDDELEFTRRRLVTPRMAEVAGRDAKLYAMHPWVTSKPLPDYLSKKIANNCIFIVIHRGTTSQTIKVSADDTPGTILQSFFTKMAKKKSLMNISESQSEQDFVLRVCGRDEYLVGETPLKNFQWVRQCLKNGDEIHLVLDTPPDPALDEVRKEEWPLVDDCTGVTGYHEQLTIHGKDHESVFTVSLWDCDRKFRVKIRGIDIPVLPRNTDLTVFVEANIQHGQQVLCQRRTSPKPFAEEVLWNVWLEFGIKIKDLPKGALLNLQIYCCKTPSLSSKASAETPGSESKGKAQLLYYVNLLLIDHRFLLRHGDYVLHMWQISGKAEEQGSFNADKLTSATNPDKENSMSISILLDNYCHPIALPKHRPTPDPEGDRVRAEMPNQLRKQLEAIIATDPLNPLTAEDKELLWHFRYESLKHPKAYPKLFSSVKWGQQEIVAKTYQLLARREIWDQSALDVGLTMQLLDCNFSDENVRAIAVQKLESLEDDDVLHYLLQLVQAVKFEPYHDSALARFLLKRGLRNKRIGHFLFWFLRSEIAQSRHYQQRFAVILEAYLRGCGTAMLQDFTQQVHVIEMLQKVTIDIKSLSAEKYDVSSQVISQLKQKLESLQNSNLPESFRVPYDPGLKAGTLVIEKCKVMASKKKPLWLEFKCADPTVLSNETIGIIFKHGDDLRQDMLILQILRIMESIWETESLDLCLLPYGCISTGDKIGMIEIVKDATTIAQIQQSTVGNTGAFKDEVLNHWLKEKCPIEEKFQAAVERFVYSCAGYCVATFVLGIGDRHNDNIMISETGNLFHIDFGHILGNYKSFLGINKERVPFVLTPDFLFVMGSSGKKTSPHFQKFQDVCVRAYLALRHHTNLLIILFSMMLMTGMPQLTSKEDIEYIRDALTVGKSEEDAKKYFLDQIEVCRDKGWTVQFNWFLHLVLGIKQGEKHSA
UniProt P21146, residues 495-689: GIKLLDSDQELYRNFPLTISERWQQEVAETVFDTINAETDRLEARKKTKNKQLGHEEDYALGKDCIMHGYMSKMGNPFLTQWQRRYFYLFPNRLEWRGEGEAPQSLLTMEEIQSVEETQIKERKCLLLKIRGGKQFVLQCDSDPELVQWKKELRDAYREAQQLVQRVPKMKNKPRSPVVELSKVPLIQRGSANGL

Assay [1] addresses endogenous βARK1 of mouse heart (mouse) (UniProt Q99MK8). Description: βARK1 immunoprecipitation from mouse myocardial extracts, PI3K activity and PI3Kγ immunoblot. (Immunoblotting shows a protein as a band on a membrane.)
Assay [2] has the same target. Description: βARK1 immunoprecipitation from mouse myocardial extracts, immunoblot.
Assay [3] has as its target Myc-PI3Kα (Homo sapiens (Human)) (UniProt P42336). Description: PI3K immunoprecipitation (anti-myc), immunoblot with a βARK1 C-terminus polyclonal antibody.
For assay [4] the target is unchanged. Description: immunoprecipitation with anti-myc, immunoblot with a βARK1 C-terminus polyclonal antibody, transfected NIH-3T3 cells.

For the substance “endogenous PI3Kγ of mouse heart (from UniProt Q9JHG7 1-1102) (enzyme)”, the binding result in assay [1] and in assay [2] was “binds” throughout.
For “carboxyl terminus of βARK1 (βARKct) (from UniProt P21146 495-689)”, the binding result in assay [3] and in assay [4] was “binds” each time.
